Source: publication PMC10163288
The other results are listed elsewhere or left out.

B1: il2ra_site2_2erj_normal_mot_HHH_b2_04303_af2_000000294_0001_21_38_H_._HHH_b1_01657_0001_0000200007_0000001_0 (protein)
chain: SSSSDLEERIRELLEQIEELLERGNPEEAEKLVSEAFELAYEANDPRLAALVIELAHLIFSSSSS
B2: il2ra_site1_2b5i_normal_mot_HHH_b2_04910_000000118_0001_1_19_H_._HHH_b1_03439_af2_0001_0000500027_0000001_0_af2pred_dldesign_0_af2pred (protein)
chain: SSSSSATAEALKLFLEADKLYQAGKEEEAKKKLEEALKKARAGGSTALEKMIESALKQLELSSSS
B3: il2ra_site2_3nfp_normal_mot_HHH_b2_05281_000000198_0001_39_56_H_._HHH_b1_04885_0001_0000100005_0000001_0 (protein)
chain: SSSSSKEEIEELLEELRRLVEEGDEERFEELAALVTHLAFELRDPRLFFLVAELAYLFRQSSSSS
B4: il2ra_site1_1z92_sap_20_mot_HHH_b2_02761_000000226_0001_1_18_H_._HHH_b1_00430_af2_0001_0000400036_0000001_0_0001_af2pred_0001_af2pred_1 (protein)
chain: SSSSDEEREREVTRIVLEVAEEFHLNAREEAELFRLAYKLLKRGYSEEEIKEILQELAHKSSSSS
B5: il2ra_site2_3nfp_normal_mot_HHH_b2_01155_000000159_0001_38_52_H_._HHH_b2_07590_0001_0000200017_0000001_0 (protein)
chain: SSSSSEVEREVEELLKEAERLLEEGDPHRAFYLLAEAALLVWQNENEELRKLVEHLAERIYSSSS
B6: il2ra_site1_3nfp_normal_mot_HHH_b1_01976_000000194_0001_43_56_H_._HHH_b2_06271_0001_0000100001_0000001_0 (protein)
chain: SSSSSEEQEFLREVLEALEKLTKVDPEEARELLEEARRLAEELNDPRLRHDVEFYAKQVRSSSSS
B7: il2ra_site1_1z92_normal_mot_HHH_b2_04375_000000267_0001_42_56_H_._a7d4ab743ae57deeac5d741f7278d18b_0001_0001_0000200031_0000001_0_af2pred_0001_af2pred_1 (protein)
chain: SEEELEELAKELGVPPEEVEVVLRELRRAEELGIPPEKVLRALIRAAERSGNPKLAEVLQELLER
B8: il2ra_site1_1z92_normal_mot_HHH_b1_02362_af2_000000131_0001_1_17_H_._HHH_b1_08295_0001_0000100004_0000001_0 (protein)
chain: SSSDLEVLKRLDEFVLELAEEYGLDEEVARRLLHTVSKLFARGVSEEEIEKILEEIVEEYKSSSS
B9: il2ra_site2_2erj_normal_mot_HHH_b1_02534_000000050_0001_23_39_H_._HHH_b2_03380_0001_0000200004_0000001_0_af2pred_0001_af2pred (protein)
chain: SSSSSSEEDRERNARRALERARKIEDKEKVKELLRVAELAAESVNDEELEEEVREVAEELSSSSS
B10: il2ra_site2_2erj_sap_10_mot_HHH_b1_07182_000000298_0001_1_15_H_._HHH_b1_06428_af2_0001_0000200003_0000001_0_0001 (protein)
chain: SSSSSLKELYELANRLLHALSNGDEELFEELLEEAKKLAEELNSDTVKEMLERLERLLRDSSSSS
B11: il2ra_site2_3nfp_normal_mot_HHH_b1_00660_af2_000000090_0001_40_57_H_._HHH_b2_06895_0001_0000100004_0000001_0 (protein)
chain: SSSSDEEVRQLLERVEELLEEGDYEEARRLLSRAALLAYEAGDFELFARIQELRFLLLRLSSSSS
B12: il2ra_site2_2erj_normal_mot_HHH_b2_01204_af2_000000056_0001_19_34_H_._HHH_b2_02030_0001_0000500011_0000001_0 (protein)
chain: SSSSSDEEEVEELLERAEKSDDLREIYKLLVEALHIASKTNNDELQELITQVAERIARGSSSSSS
B13: il2ra_site1_1z92_normal_mot_30aa582283ecb64a35315be28fff3e94_0001_000000110_0001_35_49_H_._HHH_b2_06812_af2_0001_0000400063_0000001_0_af2pred_0001_af2pred_1 (protein)
chain: SSSSSLEKQAKKLVEDAVRLAGLSEEEKEQLEELAKELVEEGVDSIEIARILEEFVKRLLSSSSS
B14: il2ra_site2_2erj_normal_mot_HHH_b1_06571_000000096_0001_1_16_H_._HHH_b1_07788_0001_0000900011_0000001_0 (protein)
chain: SSSSDLEEELERLIEAALELVRRAGNPELAELVEELLERFKEEGDPRYAALAYKLLREAHSSSSS
B15: il2ra_site2_3nfp_sap_13_mot_HHH_b2_07186_000000286_0001_42_55_H_._HHH_b1_01394_0001_0000300011_0000001_0_0001 (protein)
chain: SDEVAQIMEELSKRNDPVAFLVYLIARLAFERNDPELQKLAREVLQIAKKNPEEAKELAEEILER
B16: il2ra_site2_2erj_sap_26_mot_46479c6699afdbd8d5d5faf00326b0b9_0001_1_af2_000000112_0001_34_47_H_._HHH_b2_02360_af2_0001_0000400012_0000001_0_0001 (protein)
chain: SSSSSDEEELWEEVAEAVAKAAHIPDEEEVERLLEEAERLARELGNETLQRYVELAKEHASSSSS
B17: il2ra_site1_2b5i_sap_17_mot_HHH_b1_01346_af2_000000027_0001_1_20_H_._HHH_b2_01738_0001_0000100001_0000001_0_0001_af2pred_dldesign_0_af2pred (protein)
chain: SSSSSPVLDEAREDILEAAEKGDKELLEHLLSQLQKYYDLTKDPRVKELIELALEELEKLSSSSS
B18: il2ra_site1_3nfp_normal_mot_HHH_b1_01231_af2_000000170_0001_1_16_H_._HHH_b1_03581_0001_0000200016_0000001_1_af2pred_0001_af2pred_swapped (protein)
chain: SSSSSREEVEELVEEAREAAEEGDRKKARELVRAILELAKETGDPEISKLLEELLEFLWRLSSSS
B19: il2ra_site1_1z92_sap_19_mot_HHH_b2_05687_000000267_0001_41_56_H_._ems_3hM_3687_0001_0000200012_0000001_0_0001 (protein)
chain: SSSSDEEVLELWKRVAELMREGNIEEAKELVEEAIRLAREAGDERLAKDLERFLERIEESDSSSS

Target: il2ra, P01589
Assay: yeast display titration

Row | Binder | apparent Kd
1 | B1 | inactive: no binding seen
2 | B2 | inactive: no binding seen
3 | B3 | inactive: no binding seen
4 | B4 | inactive: no binding seen
5 | B5 | inactive: no binding seen
6 | B6 | inactive: no binding seen
7 | B7 | inactive: no binding seen
8 | B8 | inactive: no binding seen
9 | B9 | inactive: no binding seen
10 | B10 | inactive: no binding seen
11 | B11 | inactive: no binding seen
12 | B12 | inactive: no binding seen
13 | B13 | inactive: no binding seen
14 | B14 | inactive: no binding seen
15 | B15 | inactive: no binding seen
16 | B16 | inactive: no binding seen
17 | B17 | inactive: no binding seen
18 | B18 | inactive: no binding seen
19 | B19 | inactive: no binding seen

Reprinted at random: 2 records from the list
Row | Binder | apparent Kd
11 | B11 | inactive: no binding seen
19 | B19 | inactive: no binding seen
